These are yes or no findings as the source states them, for the method shown. Binding seen in cells or lysates may run through a third protein. A yes stands for co-enrichment or nearness to the bait. Other partners may have been found.
Molecular target: T1, YOD1 (mouse (endogenous in RAW264.7 cells and BMDMs)) (UniProt Q8CB27)
T1 sequence: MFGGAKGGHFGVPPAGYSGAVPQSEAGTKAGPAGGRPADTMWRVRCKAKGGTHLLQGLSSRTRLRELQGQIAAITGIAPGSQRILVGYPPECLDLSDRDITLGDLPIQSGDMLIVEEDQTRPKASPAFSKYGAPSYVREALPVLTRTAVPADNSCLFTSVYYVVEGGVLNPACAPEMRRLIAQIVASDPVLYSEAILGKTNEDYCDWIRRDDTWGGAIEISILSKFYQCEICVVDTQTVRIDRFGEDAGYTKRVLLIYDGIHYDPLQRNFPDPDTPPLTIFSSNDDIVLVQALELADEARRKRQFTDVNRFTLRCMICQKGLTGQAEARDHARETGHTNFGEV
Test: affinity purification with mass spectrometry; YOD1 and interacting proteins immunoprecipitated from RAW264.7 cells, untreated (resting) or LPS 500 ng/ml 30 min (activation); performed only once

Amino acid sequences for entries named in this document (tags omitted).
UniProt P58801: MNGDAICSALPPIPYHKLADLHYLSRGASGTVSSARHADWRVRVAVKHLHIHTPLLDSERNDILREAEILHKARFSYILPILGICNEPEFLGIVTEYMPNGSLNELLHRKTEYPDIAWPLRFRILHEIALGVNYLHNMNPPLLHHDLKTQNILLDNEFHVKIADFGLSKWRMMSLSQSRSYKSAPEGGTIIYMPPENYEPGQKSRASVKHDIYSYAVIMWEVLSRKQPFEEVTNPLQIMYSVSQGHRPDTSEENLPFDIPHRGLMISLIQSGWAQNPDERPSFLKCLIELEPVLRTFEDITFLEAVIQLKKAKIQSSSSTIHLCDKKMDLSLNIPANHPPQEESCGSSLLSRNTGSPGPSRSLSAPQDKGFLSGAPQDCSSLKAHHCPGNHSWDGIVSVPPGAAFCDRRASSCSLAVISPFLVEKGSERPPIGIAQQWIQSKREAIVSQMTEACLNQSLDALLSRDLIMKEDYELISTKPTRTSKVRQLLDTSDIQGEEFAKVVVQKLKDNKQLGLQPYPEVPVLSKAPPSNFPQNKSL

binding: binds
Substance: receptor-interacting serine/threonine kinase 2 (RIPK2) (from UniProt P58801 1-539)
